The experiment addresses protein arginine methyltransferase-3 (PRMT3) (human) (UniProt O60678). Briefly: affinity purification with mass spectrometry; co-IP of PRMT3 from cell lysate, trypsin digestion, 4D-Fast DIA qualitative proteomics, DIA-NN search.

Amino acid sequences for entries named in this document (tags omitted).
UniProt O60678: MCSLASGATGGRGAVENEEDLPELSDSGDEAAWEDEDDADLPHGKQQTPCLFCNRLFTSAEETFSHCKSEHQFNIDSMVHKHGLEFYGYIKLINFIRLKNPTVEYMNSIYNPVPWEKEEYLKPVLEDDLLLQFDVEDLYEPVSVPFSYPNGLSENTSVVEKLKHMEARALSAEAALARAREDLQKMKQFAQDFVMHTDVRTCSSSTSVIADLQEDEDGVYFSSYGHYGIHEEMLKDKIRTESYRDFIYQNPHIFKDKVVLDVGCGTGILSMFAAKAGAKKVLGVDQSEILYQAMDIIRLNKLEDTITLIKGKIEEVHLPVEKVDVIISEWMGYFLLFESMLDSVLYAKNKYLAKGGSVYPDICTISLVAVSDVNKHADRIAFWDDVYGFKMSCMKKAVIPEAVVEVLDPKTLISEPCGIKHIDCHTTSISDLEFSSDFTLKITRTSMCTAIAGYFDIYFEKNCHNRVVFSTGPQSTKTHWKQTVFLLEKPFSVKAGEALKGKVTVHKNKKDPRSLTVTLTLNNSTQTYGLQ
UniProt P14902: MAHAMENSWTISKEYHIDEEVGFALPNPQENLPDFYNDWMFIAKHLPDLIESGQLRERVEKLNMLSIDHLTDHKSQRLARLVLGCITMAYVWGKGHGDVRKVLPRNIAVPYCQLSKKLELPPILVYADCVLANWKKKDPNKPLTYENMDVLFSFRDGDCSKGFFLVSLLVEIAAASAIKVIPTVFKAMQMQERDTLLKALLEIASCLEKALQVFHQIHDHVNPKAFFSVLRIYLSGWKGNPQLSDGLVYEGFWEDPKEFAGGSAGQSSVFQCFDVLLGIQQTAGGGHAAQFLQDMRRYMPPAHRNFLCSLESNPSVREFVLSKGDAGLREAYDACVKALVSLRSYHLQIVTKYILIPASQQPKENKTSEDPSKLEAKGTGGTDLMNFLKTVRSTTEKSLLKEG
UniProt P05549: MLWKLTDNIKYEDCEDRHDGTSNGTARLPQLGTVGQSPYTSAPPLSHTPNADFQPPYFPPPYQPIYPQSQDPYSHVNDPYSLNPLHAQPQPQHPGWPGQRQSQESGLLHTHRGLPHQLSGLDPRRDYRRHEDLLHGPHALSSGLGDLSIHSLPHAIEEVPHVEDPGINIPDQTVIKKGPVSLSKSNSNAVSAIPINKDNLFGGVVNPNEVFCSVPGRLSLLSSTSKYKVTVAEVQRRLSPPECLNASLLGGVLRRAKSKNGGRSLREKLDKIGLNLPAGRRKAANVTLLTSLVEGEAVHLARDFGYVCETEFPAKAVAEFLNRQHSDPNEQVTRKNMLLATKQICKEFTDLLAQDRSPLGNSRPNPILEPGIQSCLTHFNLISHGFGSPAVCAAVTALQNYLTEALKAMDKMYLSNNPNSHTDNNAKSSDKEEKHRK

These are yes or no findings as the source states them, for the method shown. In cells and extracts the contact can be indirect. Here binding means that the protein was enriched with, or labelled near, the bait; the list need not be complete. No binding means not detected with the bait.

This is an account of results in article PMC12809119.

On to “indoleamine 2,3-dioxygenase 1 (IDO1) (from UniProt P14902 1-403) (enzyme)”, for which the binding result is given as “no binding”.

Consider “transcription factor TFAP2A (from UniProt P05549 1-437)”, for which the binding entry is listed as “binds”.
